According to patent publication US20230357362A1:
These are yes or no findings as the source states them, for the method shown. Some results given as binding are weak or reduced against the parent protein; the word gives no strength. Where a sequence is shown, tags or fusion partners need not be part of it.

Sequences of proteins named here, by UniProt entry; tags and fusion partners are left off. A change or cut given only in a name is not applied to a line headed by its entry. A line that says so, or that is headed by a name, gives the form on record, which may keep a tag or linker.
endogenous fibronectin of human CRC cells (Isoform 10 of Fibronectin OS = Homo sapiens GN = FN1) (P02751, form named): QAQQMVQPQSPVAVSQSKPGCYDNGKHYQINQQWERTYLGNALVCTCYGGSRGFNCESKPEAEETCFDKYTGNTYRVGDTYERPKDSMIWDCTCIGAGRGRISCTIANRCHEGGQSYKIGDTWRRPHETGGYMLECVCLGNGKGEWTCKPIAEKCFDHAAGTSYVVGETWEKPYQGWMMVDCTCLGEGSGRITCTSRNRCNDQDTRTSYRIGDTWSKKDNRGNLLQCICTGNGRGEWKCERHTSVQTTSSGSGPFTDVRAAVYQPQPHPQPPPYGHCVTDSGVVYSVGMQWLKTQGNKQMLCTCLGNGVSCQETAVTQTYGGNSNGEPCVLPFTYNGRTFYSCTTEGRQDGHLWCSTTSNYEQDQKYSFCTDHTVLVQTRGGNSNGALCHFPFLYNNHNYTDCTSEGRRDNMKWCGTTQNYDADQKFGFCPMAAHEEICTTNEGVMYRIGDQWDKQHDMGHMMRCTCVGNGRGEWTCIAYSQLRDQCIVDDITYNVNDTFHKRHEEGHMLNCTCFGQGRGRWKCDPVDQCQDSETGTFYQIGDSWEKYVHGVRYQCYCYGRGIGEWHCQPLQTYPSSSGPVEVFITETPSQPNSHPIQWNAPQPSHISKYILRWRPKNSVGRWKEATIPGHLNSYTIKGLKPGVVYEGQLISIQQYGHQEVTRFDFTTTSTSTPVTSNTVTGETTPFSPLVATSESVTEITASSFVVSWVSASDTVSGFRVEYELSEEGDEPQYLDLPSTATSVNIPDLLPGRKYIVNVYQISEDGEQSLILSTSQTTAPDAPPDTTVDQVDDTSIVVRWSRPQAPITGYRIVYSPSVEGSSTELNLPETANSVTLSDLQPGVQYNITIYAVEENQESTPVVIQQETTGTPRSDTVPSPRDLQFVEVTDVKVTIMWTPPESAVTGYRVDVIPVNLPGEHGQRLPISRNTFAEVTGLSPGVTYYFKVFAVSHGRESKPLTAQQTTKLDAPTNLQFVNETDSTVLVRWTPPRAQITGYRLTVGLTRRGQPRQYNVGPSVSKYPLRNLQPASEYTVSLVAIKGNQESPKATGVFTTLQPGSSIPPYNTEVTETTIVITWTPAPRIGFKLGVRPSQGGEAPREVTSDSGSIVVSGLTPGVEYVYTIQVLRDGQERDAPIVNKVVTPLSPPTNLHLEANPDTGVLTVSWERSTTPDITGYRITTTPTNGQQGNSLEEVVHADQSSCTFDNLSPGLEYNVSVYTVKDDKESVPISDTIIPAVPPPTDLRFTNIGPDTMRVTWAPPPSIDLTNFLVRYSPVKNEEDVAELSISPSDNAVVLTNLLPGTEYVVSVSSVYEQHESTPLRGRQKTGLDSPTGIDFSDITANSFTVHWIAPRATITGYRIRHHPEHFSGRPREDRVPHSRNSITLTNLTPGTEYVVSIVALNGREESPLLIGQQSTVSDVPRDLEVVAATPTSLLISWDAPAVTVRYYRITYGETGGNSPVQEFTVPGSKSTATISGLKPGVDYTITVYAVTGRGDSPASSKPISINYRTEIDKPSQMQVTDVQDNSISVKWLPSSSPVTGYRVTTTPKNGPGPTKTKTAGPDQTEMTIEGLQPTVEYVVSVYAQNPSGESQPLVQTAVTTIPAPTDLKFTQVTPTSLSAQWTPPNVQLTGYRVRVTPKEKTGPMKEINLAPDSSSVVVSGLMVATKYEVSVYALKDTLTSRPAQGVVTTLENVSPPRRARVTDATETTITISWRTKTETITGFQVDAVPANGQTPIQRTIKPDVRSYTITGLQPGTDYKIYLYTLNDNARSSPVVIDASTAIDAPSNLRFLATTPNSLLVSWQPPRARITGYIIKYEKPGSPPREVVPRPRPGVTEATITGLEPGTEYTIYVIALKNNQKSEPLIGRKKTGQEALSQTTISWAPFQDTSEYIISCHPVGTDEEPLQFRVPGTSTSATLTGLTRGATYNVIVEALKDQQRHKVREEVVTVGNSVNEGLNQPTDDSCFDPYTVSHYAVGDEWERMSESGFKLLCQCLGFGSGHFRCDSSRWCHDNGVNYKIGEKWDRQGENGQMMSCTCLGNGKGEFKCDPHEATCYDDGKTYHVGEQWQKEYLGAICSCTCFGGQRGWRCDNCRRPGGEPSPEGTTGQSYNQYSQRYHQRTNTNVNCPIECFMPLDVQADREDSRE

Columns and labels:
[1] = target: endogenous fibronectin of human CRC cells (Isoform 10 of Fibronectin OS = Homo sapiens GN = FN1) (Homo sapiens) (UniProt P02751); test: immunofluorescence colocalization on HCT116 cells
[2] = target: endogenous fibronectin of human CRC cells (Isoform 10 of Fibronectin OS = Homo sapiens GN = FN1) (Homo sapiens) (UniProt P02751); test: immunofluorescence colocalization on HCT116 cells (FIG. 11D)

binding [1]: binds | binding [2]: binds
B1: His-tagged full-length dysadherin overexpressed in HCT116 cells (protein, human, UniProt Q96DB9 22-178, looked up, not shown: small tags and cut ends)
chain: QTLKDTTSSSSADSTIMDIQVPTRAPDAVYTELQPTSPTPTWPADETPQPQTQTQQLEGTDGPLVTDPETHKSTKAAHPTDDTTTLSERPSPSTDVQTDPQTLKPSGFHEDDPFFYDEHTLRKRGLLVAAVLFITGIIILTSGKCRQLSRLCRNRCR
